Test results reported in patent US5047397A, “Linear analogs of atrial natriuretic peptides” (California Biotechnology Inc., priority 1988, dated 1991).
“Also recorded” adds a separate entry of the source. Not every detail of the peptide structures is certain; ends, links or a residue may be inferred. Some entries repeat one wording, which the source may state once for all of them. Where a SMILES comes first, the peptide text is derived from it. The star is where a group is joined. Acetyl(2-naphthyloxy) = O=C(COc1ccc2ccccc2c1)*; Acetyl(2-naphthyl) = O=C(Cc1ccc2ccccc2c1)*; Hydrocinnamoyl = O=C(CCc1ccccc1)*; Ava = NCCCCC(=O)O

Tests used:
[1] = system: pentobarbital-anesthetized dogs; experiment: Diuresis and natriuresis in anesthetized dogs; assay type: in vivo, dog; conditions: for Peak Urine Flow Rate V / Peak Urine Sodium Excretion UNa V: *P<0.05; for Peak Urine Flow Rate V: control 0.61; for Peak Urine Sodium Excretion UNa V: control 40
Protocol: In these examples, cannulae were placed in the left and right ureters and femoral vein of anesthetized dogs and urine was collected from the ureters. Analog peptides were administered via the femoral vein. Prior to infusing analog peptides, saline was infused for 30 minutes and urine was then collected for three ten-minute collection periods. Urine volume was determined gravimetrically and urine sodium was determined photometrically.
Following these three baseline collection periods, the selected analog peptides were infused for 60 minutes and urinary flow was measured for an additional 60 minutes following infusion. During infusion (60 minutes) and recovery (60 minutes), ten-minute collection periods were obtained. Control animals which received only saline were studied in parallel.
Data were examined by comparing urine flow rates for dogs infused with peptides AP101 (3 mcg/kg/min), AP306 (3 mcg/kg/min), AP324 (3 mcg/kg/min),or AP314 (1 mcg/kg/min) against control animals infused with saline.

anesthetized rats = experiment: Diuresis in anesthetized rats; assay type: in vivo, rat; conditions: infused at 10 mcg/min via femoral vein; versus baseline; FIG. 3
Protocol: In one set of examples, cannulae were placed in the left and right ureters and femoral vein of anesthetized rats and urine was collected from the ureters. Analog peptides were administered via the femoral vein. Prior to infusing the analog peptides, saline was infused for 30 minutes, urine was collected for 6 five-minute baseline periods and urine volume was determined gravimetrically. Following these baseline collection periods, various analog peptides were infused for 30 or 60 minutes and urine volume was measured in five-minute periods during infusion and for 60 minutes following infusion (at which time rats were returned to saline). Data was examined by averaging urine flow rates for six five-minute baseline control periods immediately preceding infusion, and comparing values during and after administration of peptides with the "baseline" control values. Responses to peptides are thus evaluated and plotted as the percent of baseline control responses. Specific examples are shown in FIGS. 3A-H. The error bars at the beginning of the graphs represent baseline values +standard deviations. Responses to peptides that are substantially above baseline ±SD can thus be interpreted as being statistically significant increases.

[2] = molecular target: T1, specific ANP receptor sites on BASM or BAE cells (Bos taurus, UniProt P10730); experiment: Competitive displacement receptor binding of (125I)-rANP(126-150) on cultured cells; parameters: species or system bovine; conditions: increasing concentrations of unlabeled peptide
T1 construct: specific receptor sites on BASM or BAE cells; endogenous in cells; host or cells: cultured BASM and BAE cells
T1 sequence (P10730 42-537): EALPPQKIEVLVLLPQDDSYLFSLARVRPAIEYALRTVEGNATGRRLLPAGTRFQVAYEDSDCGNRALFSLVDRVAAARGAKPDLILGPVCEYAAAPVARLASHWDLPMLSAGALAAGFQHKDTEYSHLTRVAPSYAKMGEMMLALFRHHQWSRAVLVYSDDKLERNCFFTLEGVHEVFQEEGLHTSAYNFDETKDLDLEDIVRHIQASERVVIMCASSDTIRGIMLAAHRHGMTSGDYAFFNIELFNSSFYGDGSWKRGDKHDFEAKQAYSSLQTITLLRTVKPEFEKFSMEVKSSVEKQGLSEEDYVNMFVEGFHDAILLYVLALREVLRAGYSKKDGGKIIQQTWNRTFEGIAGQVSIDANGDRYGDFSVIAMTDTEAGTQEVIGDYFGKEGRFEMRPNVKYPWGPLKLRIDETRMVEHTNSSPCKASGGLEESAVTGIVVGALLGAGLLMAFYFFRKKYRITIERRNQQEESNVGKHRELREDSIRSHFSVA
Text: Analogous "competitive displacement" receptor binding assays are considered commonplace in the art for examining specific ligand-receptor interactions.
Assuming these ANP analogs act at one or more ANP receptor sites, then increased receptor affinity should reflect increased biological potency.

Compound: CC[C@H](C)[C@H](NC(=O)[C@H](CCCNC(=N)N)NC(=O)[C@H](CC(=O)O)NC(=O)[C@@H](NC(=O)[C@H](CCCNC(=N)N)NC(=O)CCCCNC(=O)Cc1ccc2ccccc2c1)[C@@H](C)CC)C(N)=O [AP324, (2-NA)--NH(CH2)4 CO--R--I--D--R--I--NH2] ({Acetyl(2-naphthyl)-Ava}-RIDRI-NH2)
- Peak Urine Flow Rate V ([1]; 3 mcg/kg/min infused 60 min): 2.47 mL/min
- Peak Urine Sodium Excretion UNa V ([1]; 3 mcg/kg/min infused 60 min): 495 mcEq/min
- urine flow rate and urinary sodium excretion (diuresis, natriuresis), in words ([1]; 3 mcg/kg/minute infusion): cause diuresis; also recorded: significantly increased
- urine flow rate (urine volume), diuretic response (anesthetized rats): induce diuresis; also recorded: significantly increased

Compound: CC[C@H](C)[C@H](NC(=O)[C@H](CCCNC(=N)N)NC(=O)[C@H](CC(=O)O)NC(=O)[C@@H](NC(=O)[C@H](CCCNC(=N)N)NC(=O)CNC(=O)CNC(=O)CCc1ccccc1)[C@@H](C)CC)C(N)=O [AP132, (desNH2 --F)--G--G--R--I--D--R--I--NH2] (Hydrocinnamoyl-GGRIDRI-NH2)
- prevention of (125I)-rANP(126-150) binding to BASM cell-associated receptors (FIG. 2) [2]: effectively prevent

Compound: CC[C@H](C)[C@H](NC(=O)[C@H](CCCNC(=N)N)NC(=O)[C@H](CC(=O)O)NC(=O)[C@@H](NC(=O)[C@H](CCCNC(=N)N)NC(=O)CNC(=O)CNC(=O)COc1ccc2ccccc2c1)[C@@H](C)CC)C(N)=O [AP319, (2-NOA)--G--G--R--I--D--R--I--NH2] ({Acetyl(2-naphthyloxy)}-GGRIDRI-NH2)
- urine flow rate (urine volume), diuretic response (anesthetized rats): induce diuresis; also recorded: significantly increased

Compound: CC[C@H](C)[C@H](NC(=O)[C@H](CCCNC(=N)N)NC(=O)[C@H](CC(=O)O)NC(=O)[C@@H](NC(=O)[C@H](CCCNC(=N)N)NC(=O)CNC(=O)CNC(=O)Cc1ccc2ccccc2c1)[C@@H](C)CC)C(N)=O [AP314, (2-NA)--G--G--R--I--D--R--I--NH2] ({Acetyl(2-naphthyl)}-GGRIDRI-NH2)
- Peak Urine Flow Rate V ([1]; 1 mcg/kg/min infused 60 min): 2.05 mL/min
- Peak Urine Sodium Excretion UNa V ([1]; 1 mcg/kg/min infused 60 min): 365 mcEq/min
- urine flow rate and urinary sodium excretion (diuresis, natriuresis), in words ([1]; 1 mcg/kg/minute infusion): cause diuresis; also recorded: significantly increased
